From PubChem BioAssay AID488837 (National Center for Advancing Translational Sciences (NCATS), 2010)
Hit rate of the full screen: of about 330,000 compounds, about 20 (0.006%) were called active. The inconclusive results got no clear call from the source; some entries with a clear call stand among them for comparison. Calls follow the shape of the dose curve; as a rule, active = well fitted inhibition curve with a large enough effect; inconclusive = small, poorly fitted or top-dose-only effect, or effect the other way; inactive = flat fitted curve, though single readings scatter. Potencies of inconclusive entries are doubtful fits and often do not repeat.

Amino acid sequences for entries named in this document (tags omitted). A change or cut given only in a name is not applied to a line headed by its entry.
UniProt O00167: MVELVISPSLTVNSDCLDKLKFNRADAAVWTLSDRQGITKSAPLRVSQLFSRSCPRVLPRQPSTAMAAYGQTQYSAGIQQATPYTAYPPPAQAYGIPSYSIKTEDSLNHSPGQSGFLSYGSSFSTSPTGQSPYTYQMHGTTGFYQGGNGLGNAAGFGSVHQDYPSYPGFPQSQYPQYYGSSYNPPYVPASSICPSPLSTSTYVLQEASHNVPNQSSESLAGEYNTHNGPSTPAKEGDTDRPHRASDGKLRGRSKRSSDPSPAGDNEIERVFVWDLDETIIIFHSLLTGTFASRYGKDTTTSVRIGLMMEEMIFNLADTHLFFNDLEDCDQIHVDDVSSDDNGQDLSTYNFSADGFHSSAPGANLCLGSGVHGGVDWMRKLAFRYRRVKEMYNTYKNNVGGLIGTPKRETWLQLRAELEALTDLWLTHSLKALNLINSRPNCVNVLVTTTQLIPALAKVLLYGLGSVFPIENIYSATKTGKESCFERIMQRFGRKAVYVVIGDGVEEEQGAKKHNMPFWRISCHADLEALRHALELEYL

Target: Protein phosphatase EYA2 (Homo sapiens) (UniProt O00167)
Assay: qHTS Assay for Inhibitors of the Phosphatase Activity of Eya2
Conditions: recombinant Eya2, OMFP fluorescence dephosphorylation (OMFP is methylfluorescein phosphate); activity, negative = inhibition: at 76.9 µM (top of the series)
Procedure, shortened: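 Eya2 (0.2 uM) preincubated 10 min at ambient with compound, then OMFP substrate added at 50 uM; 10 min reaction in 50 mM HEPES pH 7.5, 50 mM NaCl, 5 uM MgCl2, 0.05% BSA, 1 mM DTT. Fluorescence read at Ex 485/Em 525 nm.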
% is scaled to controls: 0 for no effect and ±100 for the full control effect; potency is read from the fitted curve at half-maximal effect.

SMILES	Potency	activity, negative = inhibition
Cn1c(O)c(/C=C2\C=Nc3ccc(Br)cc32)c(=O)n(C)c1=O	inconclusive: 100 µM [inhibitor, single point]	–
CN(C)C(=O)Oc1ccc(-c2cn3cc(C(F)(F)F)ccc3n2)cc1	inactive	–
O=c1[nH]c(=S)n(-c2ccccc2F)c(O)c1C=NCc1ccco1	inactive	–
CCCCCCC(=O)N/N=C/c1c(O)n(CCc2ccccc2)c(=O)[nH]c1=O	inconclusive: 20 µM [inhibitor, single point]	–
CCOc1cc(CNCCc2cccc(F)c2)ccc1OC	inconclusive: 20 µM [inhibitor, single point]	–
C=CCSc1nc2c(c(-c3ccsc3)c1C#N)CN(C)CC2	inconclusive: 100 µM [inhibitor, single point]	–
CCOc1ccc2nc(N=Nc3c(O)[nH]c(=O)[nH]c3=O)sc2c1	inactive	–
O=C(Cc1ccccc1)N1CCN(CCCc2ccccc2)CC1	inconclusive: 141 µM [inhibitor, single point]	–
COc1ccc(CN2C(=O)NC(=O)/C(=C\c3cc(OC)c(OC)c(OC)c3)C2=O)cc1	inactive	–
COc1cccc(N2C(=O)NC(=O)/C(=C/c3ccc4c(c3)Cc3ccccc3-4)C2=O)c1	inactive	–
Cc1ccc(N2C(=O)NC(=O)/C(=C\C=C\c3ccco3)C2=O)cc1	inconclusive: 28.2 µM [inhibitor, single point]	–
O=c1[nH]c(O)c(C=Nc2ccccc2[N+](=O)[O-])c(=O)[nH]1	inconclusive: 89.1 µM [inhibitor, single point]	–
C=CCn1c(O)c(/C=N/NC(=O)c2ccncc2)c(=O)[nH]c1=O	inconclusive: 251 µM [inhibitor, partial curve, poor fit]	–
COc1ccc(CNCCc2ccc3c(c2)OCO3)c(OC)c1OC	inconclusive: 25.1 µM [inhibitor, single point]	–
CCOc1ccccc1-n1c(O)c(C=NCCCn2ccnc2)c(=O)[nH]c1=O	inactive	–
C=CCn1c(O)c(C(C)=NC(C)c2ccccc2)c(=O)[nH]c1=O (configuration not stated)	inconclusive: 1000 µM [inhibitor, partial curve, poor fit]	–
COc1ccc(O)c2c(=O)c3c(OC)cc4c(c3oc12)C1C=COC1O4 (configuration not stated)	–	inconclusive: -35.8% [inhibitor]
O=C(O)c1ccc[nH]c1=S	inconclusive: 100 µM [inhibitor, single point]	–
COc1ccc(N=Cc2c(O)n(Cc3ccccc3)c(=S)[nH]c2=O)c(OC)c1	inconclusive: 56.2 µM [inhibitor, partial curve]	–
CCN1C(=O)C(=C/C=C/c2ccco2)C(=O)N(CC)C1=S	inactive	–
CC(O)(CS(=O)(=O)c1cccc(C(F)(F)F)c1)C(=O)Nc1cccc(C(F)(F)F)c1 (configuration not stated)	inconclusive: 25.1 µM [inhibitor, single point]	–
Cn1c(O)c(C2=NN(C(=O)CCl)C(c3ccccc3)C2)c(=O)n(C)c1=O (configuration not stated)	inconclusive: 79.4 µM [inhibitor, single point]	–
FCCN(CCF)c1cccc(Cl)c1	inconclusive: 100 µM [inhibitor, single point]	–
COc1cc(C(=O)Nc2ccc(Br)cc2C(=O)c2ccccc2)cc(OC)c1OC	inconclusive: 447 µM [inhibitor, partial curve, poor fit]	–
Cc1ccc(S(=O)(=O)Nc2cc(C(=O)N3CCC4(CC3)OCCO4)ccc2N2CCCCC2)cc1	inconclusive: 44.7 µM [inhibitor, partial curve, poor fit]	–
Cc1cc(OCC(=O)O)c2c3c(c(=O)oc2c1)CCCC3	inactive	–

9 entries from above, as comma-separated lines.
SMILES,Potency,"activity, negative = inhibition"
Cc1ccc(N2C(=O)NC(=O)/C(=C\C=C\c3ccco3)C2=O)cc1,"inconclusive: 28.2 µM [inhibitor, single point]",–
O=c1[nH]c(O)c(C=Nc2ccccc2[N+](=O)[O-])c(=O)[nH]1,"inconclusive: 89.1 µM [inhibitor, single point]",–
C=CCn1c(O)c(/C=N/NC(=O)c2ccncc2)c(=O)[nH]c1=O,"inconclusive: 251 µM [inhibitor, partial curve, poor fit]",–
COc1ccc(CNCCc2ccc3c(c2)OCO3)c(OC)c1OC,"inconclusive: 25.1 µM [inhibitor, single point]",–
CCOc1ccccc1-n1c(O)c(C=NCCCn2ccnc2)c(=O)[nH]c1=O,inactive,–
C=CCn1c(O)c(C(C)=NC(C)c2ccccc2)c(=O)[nH]c1=O (configuration not stated),"inconclusive: 1000 µM [inhibitor, partial curve, poor fit]",–
COc1ccc(O)c2c(=O)c3c(OC)cc4c(c3oc12)C1C=COC1O4 (configuration not stated),–,inconclusive: -35.8% [inhibitor]
O=C(O)c1ccc[nH]c1=S,"inconclusive: 100 µM [inhibitor, single point]",–
COc1ccc(N=Cc2c(O)n(Cc3ccccc3)c(=S)[nH]c2=O)c(OC)c1,"inconclusive: 56.2 µM [inhibitor, partial curve]",–

Remaining list, next part.

SMILES	Potency	activity, negative = inhibition
CN1CC(C(=O)c2ccc(Cl)cc2)C(c2ccc(Cl)cc2Cl)C1 (configuration not stated)	inactive	–
CSc1nc(N)c(N=Nc2ccc([As](=O)(O)O)cc2)c(=O)[nH]1	inconclusive: 89.1 µM [inhibitor, single point]	–
N=Cc1c(O)n(-c2ccccc2)c(=O)n(-c2ccccc2)c1=O	inconclusive: 100 µM [inhibitor, single point]	–
O=C(c1cc(-c2ccc(Cl)cc2)n(-c2ccc(Cl)cc2Cl)n1)N1CCOCC1	inconclusive: 100 µM [inhibitor, single point]	–
COc1ccccc1CCNCc1ccc(OC)c(OC)c1OC	inactive	–
Cn1c(O)c(/C=N/NC(=O)c2ccncc2)c(=O)n(C)c1=S	inconclusive: 20 µM [inhibitor, partial curve, poor fit]	–
CCN1CCN(C(=O)Cc2c(C)n(C(=O)c3ccc(Cl)cc3)c3ccc(OC)cc23)CC1	inconclusive: 25.1 µM [inhibitor, single point]	–
CCCOC(=O)Nc1ccc([As](=O)(O)O)cc1NC(=O)OCCC	inactive	–
CCCn1c(=O)c2[nH]c(C3CCCC3)nc2n(CCCOC(=O)c2ccc(S(=O)(=O)F)cc2)c1=O	inconclusive: 100 µM [inhibitor, single point]	–
CN1CCN(Cc2ccc(N)cc2)CC1	inconclusive: 63.1 µM [inhibitor, partial curve, poor fit]	–
Nc1cncc(C(=O)O)c1	inconclusive: 100 µM [inhibitor, single point]	–
O=C(Nc1ccccc1)c1cccn(Cc2ccccc2)c1=O	inconclusive: 398 µM [inhibitor, single point]	–
O=[N+]([O-])c1cccc(CN2CC=C(c3ccc(F)cc3)CC2)c1	inconclusive: 25.1 µM [inhibitor, single point]	–
CCC(=O)c1cn(Cc2ccccc2)c2ccccc12	inactive	–
CCOC(=O)C1(CCc2ccccc2)CCN(CC(O)CO)CC1 (configuration not stated)	inconclusive: 141 µM [inhibitor, single point]	–
Cc1c(C)n(O)c2ccc3nonc3c12	inconclusive: 100 µM [inhibitor, single point]	–
COc1ccc(-n2c(O)c(/C=C/C=Nc3ccccc3)c(=O)[nH]c2=O)cc1	inconclusive: 39.8 µM [activator, partial curve]	–
CC(C)CN1CCN(Cc2ccc(F)cc2Cl)CC1CCO (configuration not stated)	inconclusive: 89.1 µM [inhibitor, single point]	–
COc1cc2c(cc1OC)[C@@H]1C(=O)c3ccc4c(c3O[C@@H]1CO2)C[C@H](C(C)C)O4	inconclusive: 100 µM [inhibitor, single point]	–
Cc1cc(=O)[nH]c(SCc2nc3ccccc3c(=O)n2-c2ccccc2C)n1	inconclusive: 178 µM [inhibitor, partial curve]	–
O=Cc1c(C(=O)O)n(Cc2ccc(Cl)cc2)c2ccccc12	–	inconclusive: 56.1% [activator]
O=C(CNS(=O)(=O)c1cccs1)N1CCC2(CC1)OCCO2	inconclusive: 22.4 µM [inhibitor, single point]	–
O=C1Nc2ccccc2C1Cc1nc2ccccc2c(=O)n1-c1ccccc1 (configuration not stated)	inconclusive: 100 µM [inhibitor, single point]	–
Cc1cc2ccccc2n1CCNC(=O)Cc1ccccc1	inconclusive: 10 µM [inhibitor, single point]	–
Cc1ccccc1-n1c(O)c(C(c2ccncc2)c2c(O)n(-c3ccccc3C)c(=O)[nH]c2=O)c(=O)[nH]c1=O	inactive	–
CCCc1nnc(NC(=O)CCC(=O)N2CCC3(CC2)OCCO3)s1	inconclusive: 100 µM [inhibitor, single point]	–
